{"source": "PubChem BioAssay AID540256", "about": "(National Center for Advancing Translational Sciences (NCATS), 2011)", "note": "Several values for one entry are separate records, joined by “and”; a condition that tells them apart may be missing. Identical values can stand only once. Hit rate of the full screen: of about 300,000 compounds, about 3,700 (1.2%) were called active. This list was built around the results that the source calls inconclusive (neither active nor inactive); the mix of calls is not that of the screen. The call rests on the fitted dose curve; tested in HEK293 cells. Potencies beside an inconclusive call are fits to weak or partial responses and may not hold up. Potency means the concentration at half of the fitted maximal effect.", "data": [{"assay": "qHTS for Inhibitors of binding or entry into cells for Lassa Virus; further: nearly all actives have a fitted effect of over 50% in size", "details": "Lassa virus pseudotype entry inhibition, cell reporter; series mostly up to 37.9 µM", "values": [{"smiles": "CCc1ccccc1-n1c(SCC(=O)Nc2ccc3c(c2)OCCO3)nc2[nH]ncc2c1=O", "Potency": "inconclusive: 2.91 µM [activator, partial curve, poor fit]"}, {"smiles": "CC12COC3(C(=O)Nc4ccc([N+](=O)[O-])cc4)CC1CCC32C", "note": "(stereo not drawn)", "Potency": "inactive"}, {"smiles": "Cc1nc(NC(=O)CN2CCOCC2)sc1-c1ccccc1", "Potency": "inconclusive: 14.1 µM [activator, partial curve, poor fit]"}, {"smiles": "O=C(CSc1nnc(COc2ccccc2Cl)o1)NC(=O)NC1CCCC1", "Potency": "inactive"}, {"smiles": "COc1ccccc1C(=O)Nc1ccnn1C1CCN(Cc2cnn(C)c2C)CC1", "Potency": "inconclusive: 0.794 µM [activator, partial curve, poor fit]"}, {"smiles": "CC(=O)Nc1ccc(S(=O)(=O)Oc2ccccc2N2C(=O)C3C4CCC(C4)C3C2=O)cc1", "note": "(stereo not drawn)", "Potency": "active: 2.82 µM"}, {"smiles": "CCCN(CC(=O)Nc1ccccc1C)C(=O)c1ccc(N2CCCCCC2)c([N+](=O)[O-])c1", "Potency": "inconclusive: 35.5 µM [inhibitor, partial curve, poor fit]"}, {"smiles": "COC(=O)C1=CN(Cc2ccc(OC)cc2)C=C(C(=O)OC)C1c1ccsc1", "Potency": "active: 10 µM"}, {"smiles": "COc1ccccc1CNC(=O)CCC(=O)N1CC2CCCN2c2ccccc21", "note": "(stereo not drawn)", "Potency": "inactive"}, {"smiles": "COCCCC1CCN(C(=O)c2cc(COc3ccc(C)nc3)on2)CC1", "Potency": "inconclusive: 11.2 µM [inhibitor, single point]"}, {"smiles": "COc1ccc(-c2[nH]c3ccccc3c2SCCNC(=O)c2cc(OC)c(OC)c(OC)c2)cc1", "Potency": "inconclusive: 35.5 µM [inhibitor, single point]"}, {"smiles": "O=S1(=O)CCSCCN1Cc1cc(F)ccc1Br", "Potency": "inconclusive: 35.3 µM [activator, single point]"}, {"smiles": "COc1ccc(CCNC(=O)COc2ccccc2[N+](=O)[O-])cc1OC", "Potency": "inconclusive: 4.47 µM [inhibitor, full curve, poor fit]"}, {"smiles": "C=CCn1c(C)cc(C(=O)Cn2c(C(C)O)nc3ccccc32)c1C", "note": "(stereo not drawn)", "Potency": "inactive"}, {"smiles": "Cc1cccc2sc(NNC(=O)c3ccc(S(=O)(=O)N4CC(C)CC(C)C4)cc3)nc12", "note": "(stereo not drawn)", "Potency": "inconclusive: 11.6 µM [inhibitor, single point]"}, {"smiles": "CCC1(CC)NC(=O)N(CC(=O)N2CCN(S(=O)(=O)c3cccc(F)c3)CC2)C1=O", "Potency": "inactive"}, {"smiles": "Cc1nc(-c2ccc(F)cc2)c(CC(=O)N(C)CC(=O)Nc2ccc(Br)cc2C)s1", "Potency": "inactive"}, {"smiles": "NC(=O)c1nsc(C(=O)N(c2cccc(F)c2)C(C(=O)NCc2ccccc2)c2ccc(O)cc2)c1N", "note": "(stereo not drawn)", "Potency": "inconclusive: 1.58 µM [inhibitor, full curve]"}, {"smiles": "O=C(NCc1ccc2c(c1)CCN2C(=O)c1ccc(F)cc1)c1cc2ccccc2[nH]1", "Potency": "inconclusive: 35.5 µM [inhibitor, single point]"}, {"smiles": "Cc1nc(SCc2ccccc2C)n[nH]1", "Potency": "inactive"}, {"smiles": "Cc1noc(C)c1CN(C(=S)NC1CC2CCC1C2)c1ccccc1", "note": "(stereo not drawn)", "Potency": "inactive"}, {"smiles": "CC1(C(=O)N/N=C/c2ccc([N+](=O)[O-])o2)CC1(Br)Br", "note": "(stereo not drawn)", "Potency": "active: 12.6 µM"}, {"smiles": "Cc1nn(Cc2ccc(F)cc2)c2sc(C(=O)Nc3ccc(N4CCOCC4)cc3N3CCOCC3)cc12", "Potency": "inconclusive: 17.8 µM [inhibitor, partial curve, poor fit]"}, {"smiles": "CC(=O)c1ccc(NC(=O)CSc2nnc3ccc(-c4ccc(Cl)cc4)nn23)cc1", "Potency": "inactive"}, {"smiles": "O=C(Cn1c(=O)sc2ccccc21)OC(CCl)CCl", "Potency": "inactive"}, {"smiles": "Cc1ccc(Nc2c(-c3cccs3)nc3nc(C)cc(C)n23)cc1", "Potency": "inconclusive: 35.5 µM [inhibitor, single point]"}, {"smiles": "CCOc1ccc(NC(=O)NCc2c(-n3cccc3)sc3c2CCCC3)cc1", "Potency": "inactive"}, {"smiles": "O=C(NCc1ccccn1)Nc1ccc(Br)cc1Cl", "Potency": "inactive"}, {"smiles": "COc1ccccc1OC(=O)c1ccc(C)c(S(=O)(=O)N2CCOCC2)c1", "Potency": "inconclusive: 35.5 µM [inhibitor, single point]"}, {"smiles": "CCC(=O)Oc1ccc(/C=C(\\C#N)c2nc3ccccc3[nH]2)cc1OC", "Potency": "inactive"}, {"smiles": "COc1ccc(-c2cc(C(F)(F)F)nc(S(=O)(=O)CCCC(=O)Nc3cccc(O)c3)n2)cc1OC", "Potency": "inconclusive: 35.5 µM [inhibitor, single point] and inconclusive: 6.31 µM [inhibitor, full curve, poor fit]"}, {"smiles": "COc1cc(CC(=O)Nc2nc(-c3ccc(F)c(F)c3)cs2)cc(OC)c1OC", "Potency": "inconclusive: 11.2 µM [inhibitor, partial curve]"}, {"smiles": "CC1=C[C@]2(O[C@H](COc3ccccc3)C1)C(=O)N(C)c1ccccc12", "Potency": "inconclusive: 2.66 µM [activator, partial curve, poor fit]"}, {"smiles": "CCOc1ccccc1NC(=O)C(=O)NCCc1sc(-c2cccc(F)c2)nc1C", "Potency": "inactive"}, {"smiles": "COCCN(C(C)=O)c1nnc(-c2ccccn2)s1", "Potency": "inconclusive: 35.5 µM [activator, partial curve, poor fit]"}, {"smiles": "COc1ccc(S(=O)(=O)n2oc(=O)cc2-c2ccccc2)cc1", "Potency": "inactive"}, {"smiles": "CCCCOc1ccc(NC2=NC3(CCCC3)N=C(N)N2)cc1", "Potency": "inconclusive: 20.6 µM [activator, single point]"}, {"smiles": "CCCn1c(SCC(=O)N2c3ccccc3CC2C)n[nH]c1=O", "note": "(stereo not drawn)", "Potency": "inconclusive: 5.62 µM [activator, single point]"}, {"smiles": "N#Cc1c(N2CCCCC2)nc(N)c2c(N)nc3c(c12)CC(c1ccccc1)O3", "note": "(stereo not drawn)", "Potency": "inconclusive: 35.5 µM [inhibitor, single point]"}, {"smiles": "CCCC(=O)N1c2ccccc2C(N(C(C)=O)c2ccccc2)CC1C", "note": "(stereo not drawn)", "Potency": "inconclusive: 11.2 µM [inhibitor, single point]"}, {"smiles": "CCn1c2ccccc2c2cc(CN3CCN(Cc4ccccc4F)CC3)ccc21", "Potency": "inconclusive: 35.5 µM [inhibitor, single point]"}, {"smiles": "CCCc1cc(=O)[nH]c(SCC(=O)N2CCCc3ccccc32)n1", "Potency": "inconclusive: 0.398 µM [inhibitor, partial curve, poor fit]"}, {"smiles": "Cc1nc(C)c(C(=O)Nc2ccccc2)s1", "Potency": "inactive"}, {"smiles": "COc1cc(NC(=O)c2cc(-c3cccs3)on2)cc(OC)c1OC", "Potency": "inconclusive: 11.2 µM [inhibitor, partial curve, poor fit]"}, {"smiles": "CCOc1ccc(S(=O)(=O)NCCc2sc3nc(-c4ccc(F)cc4)nn3c2C)cc1", "Potency": "inconclusive: 35.5 µM [inhibitor, single point]"}, {"smiles": "CCOc1ccc(OCC)c(NS(=O)(=O)c2cc(-c3cc(C)no3)ccc2C)c1", "Potency": "inconclusive: 7.08 µM [activator, full curve, poor fit]"}, {"smiles": "CCc1ccccc1N1C(=O)N(Cc2ccc(C#N)cc2)c2ccccc2S1(=O)=O", "Potency": "inactive"}, {"smiles": "C=C(Br)S(=O)(=O)NCc1ccccc1", "Potency": "inconclusive: 2.81 µM [inhibitor, full curve, poor fit]"}, {"smiles": "Cc1ccc(-n2nc(C(=O)N3CCC(C)CC3)c(=O)n(C)c2=O)cc1", "Potency": "inactive"}, {"smiles": "COCC(C)n1c(SCC(=O)N2CCc3ccccc3C2)nc2ccccc2c1=O", "note": "(stereo not drawn)", "Potency": "inconclusive: 3.16 µM [inhibitor, single point]"}, {"smiles": "CCn1c(CSc2nc3ccccc3s2)nnc1SCC(=O)c1ccc(Cl)cc1", "Potency": "inconclusive: 0.0891 µM [inhibitor, partial curve, poor fit]"}, {"smiles": "COc1ccc(-c2cc(-c3ccccc3)n3ncnc3n2)cc1", "Potency": "inactive"}, {"smiles": "CCN(c1ccccc1)S(=O)(=O)c1nnc(NC(=O)c2cccs2)s1", "Potency": "inconclusive: 22.4 µM [inhibitor, single point]"}, {"smiles": "Cc1ccc(-n2nc(C)c(NC(=O)CCl)c2C)cc1", "Potency": "active: 10 µM"}, {"smiles": "Cc1nc(SCC(=O)N2CC(=O)Nc3ccccc32)c2c(C)c(C)sc2n1", "Potency": "inconclusive: 6.51 µM [inhibitor, full curve]"}, {"smiles": "CCN(CC)c1ccc(NC(=O)c2cccc(C)c2)cc1S(=O)(=O)Nc1ccccc1OC", "Potency": "inconclusive: 18.4 µM [inhibitor, partial curve]"}, {"smiles": "O=C(Nc1cccc(F)c1)c1ccc2snnc2c1", "Potency": "inconclusive: 12.6 µM [activator, partial curve, poor fit]"}, {"smiles": "COc1cc(CNCCO)cc(Cl)c1OCc1ccc(Cl)cc1Cl", "Potency": "inconclusive: 35.5 µM [inhibitor, single point]"}, {"smiles": "CN(C(=O)c1cc(-n2cnnc2)ccc1Cl)c1ccccc1", "Potency": "inconclusive: 10 µM [activator, partial curve, poor fit]"}, {"smiles": "CC(C)(C)OC(=O)N1CCC(c2c(C(=O)N3CCN(C(=O)c4ccco4)CC3)cnn2-c2cccc(F)c2)CC1", "Potency": "inactive"}, {"smiles": "CC(C)NC(=O)c1ccc2c(c1)N(CC(=O)Nc1ccccc1F)C(=O)C(C)(C)O2", "Potency": "inconclusive: 0.282 µM [inhibitor, full curve, poor fit]"}, {"smiles": "Cc1cccc(NS(=O)(=O)c2ccc(Br)s2)n1", "Potency": "inconclusive: 0.146 µM [inhibitor, full curve, poor fit]"}, {"smiles": "COc1cc(/C=C/C(=O)c2cccc([N+](=O)[O-])c2)cc(OC)c1OC", "Potency": "inconclusive: 35.5 µM [inhibitor, single point]"}, {"smiles": "CN(c1ccccc1)S(=O)(=O)c1cccc(NC(=O)c2cc(=O)c3ccccc3o2)c1", "Potency": "inconclusive: 15.8 µM [inhibitor, partial curve, poor fit]"}, {"smiles": "CC(C)c1onc(C(=O)N2CCC3(CC2)OCCO3)c1[N+](=O)[O-]", "Potency": "inconclusive: 11.2 µM [activator, single point]"}, {"smiles": "CN(C)CC(C(=O)c1ccccc1)c1ccccc1", "note": "(stereo not drawn)", "Potency": "active: 8.91 µM"}, {"smiles": "O=c1sc2ccccc2n1Cc1ccccc1", "Potency": "inconclusive: 0.891 µM [inhibitor, full curve, poor fit]"}, {"smiles": "Cc1c(S(=O)(=O)c2cccc(Cl)c2)nnn1-c1cccc(C(F)(F)F)c1", "Potency": "inconclusive: 35.5 µM [inhibitor, single point]"}]}]}
